Assays:
[1] = tested on: SUP-B15 Ph+ ALL cells; experiment: MTS assay, SUP-B15; type: cell-based; conditions: Homo sapiens
Method: (§1) Cell proliferation was analyzed using MTS assay and Trypan Blue exclusion. Annexin V-FITC/Propidium Iodide flow cytometry was used to analyze the induction of apoptosis in SUP-B15 cells after treatment with anolides. Cell cycle analysis was performed using propidium iodide flow cytometry. Modulation of BCR-ABL and downstream effector proteins was determined by western blot analysis. Syngery between withanolides and TKIs was evaluated using MTS viability to calculate combination indices. Apoptotic synergy was evaluated using Annexin V/PI.

[2] = tested on: normal MRC-5 fibroblasts; experiment: MTS assay, normal MRC-5 fibroblasts (Example 7); type: cell-based; conditions: Homo sapiens, MRC5
Method: as §1
All Solanaceae-derived withanolides tested had IC50 values in the nanomolar range in SUP-B15 cells, and in the micromolar range in normal MRC-5 fibroblasts, indicating a large therapeutic index (Table 11).

Cc1ccc(NC(=O)c2ccc(CN3CCN(C)CC3)cc2)cc1Nc1nccc(-c2cccnc2)n1 [Imatinib]
IC50 [1]: 0.208 µM
IC50 [2]: 15.3 µM
